Data reported in US7754741B2, “Pyridine derivatives as fungicidal compounds” (Bayer Cropscience S.A., priority 2003, dated 2010).
Some of these results come from one statement about several compounds together. For part of these data: For at least one compound, name, drawing or mass did not settle the structure.

Experiments:
Alternaria brassicae = test: In vivo test on Alternaria brassicae (leaf spot of crucifers); conditions: dose 330 ppm; radish plants sprayed 24 hours before contamination; grading 6 to 7 days after contamination vs control plants
Protocol: In Vivo Test on Alternaria brassicae (Leaf Spot of crucifers)
(§1) The active ingredient tested is prepared by potter homogenisation in a concentrated suspension type formulation at 100 g/l. This suspension is then diluted with water to obtain the desired active material concentration.
Radish plants (Pernot variety) in starter cups, sown on a 50/50 peat soil-pozzolana substrate and grown at 18-20° C., are treated at the cotyledon stage by spraying with the aqueous suspension described above.
(§2) Plants, used as controls, are treated with an aqueous solution not containing the active material.
After 24 hours, the plants are contaminated by spraying them with an aqueous suspension of Alternaria brassicae spores (40,000 spores per cm^3). The spores are collected from a 12-13-day-old culture.
The contaminated radish plants are incubated for 6-7 days at about 18° C., under a humid atmosphere.
Grading is carried out 6 to 7 days after the contamination, in comparison with the control plants.

Pyrenophora teres = test: In vivo test on Pyrenophora teres (barley net blotch); conditions: dose 330 ppm; barley plants sprayed 24 hours before contamination; grading 12 days after contamination vs control plants
Protocol: In Vivo Test on Pyrenophora teres (Barley Net Blotch)
as §1
(§3) Barley plants (Express variety) in starter cups, sown on a 50/50 peat soil-pozzolana substrate and grown at 12° C., are treated at the 1-leaf stage (10 cm tall) by spraying with the aqueous suspension described above. Plants, used as controls, are treated with an aqueous solution not containing the active material.
After 24 hours, the plants are contaminated by spraying them with an aqueous suspension of Pyrenophora teres spores (12,000 spores per ml). The spores are collected from a 12-day-old culture The contaminated barley plants are incubated for 24 hours at about 20° C. and at 100% relative humidity, and then for 12 days at 80% relative humidity.

Botrytis cinerea = test: In vivo test on Botrytis cinerea (cucumber grey mould); conditions: dose 330 ppm; cucumber plants sprayed 24 hours before contamination; grading 5/7 days after contamination vs control plants
Protocol: In Vivo Test on Botrytis cinerea (Cucumber Grey Mould)
as §1
as §3, with “Cucumber” for “Barley”, “(Marketer” for “(Express”, “18-20°” for “12°”, “cotyledon Z11” for “1-leaf”, “stage” for “stage (10 cm tall)”
After 24 hours, the plants are contaminated by depositing drops of an aqueous suspension of Botrytis cinerea spores (150,000 spores per ml) on upper surface of the leaves. The spores are collected from a 15-day-old culture and are suspended in a nutrient solution composed of: • 20 g/L of gelatin • 50 g/L of cane sugar • 2 g/L of NH4NO3 • 1 g/L of KH2PO4
The contaminated cucumber plants are settled for 5/7 days in a climatic room at 15-11° C. (day/night) and at 80% relative humidity.
Grading is carried out 5/7 days after the contamination, in comparison with the control plants. Under these conditions, good (at least 50%) to total protection is observed at a dose of 330 ppm with the following compounds :B-7, B-8, B-13, B-14, C-3, C-12, C-13, C-14, C-15, C-16, D-4, D-5, E-4, H-1, H-2, H-4, H-7, H-9, H-22, J-1, J-2, J-3, J-19, J-31, J-32, J-33, J-34, J-35, J-37, J-39, J-43, J-44, R-1, R-10, R-23, R-24, R-26, R-31, V-1, V-8.

Peronospora brassicae = test: In vivo test on Peronospora brassicae (cabbage downy mildew); conditions: dose 330 ppm; cabbage plants sprayed 24 hours before contamination; grading 5 days after contamination vs control plants
Protocol: In Vivo Test on Peronospora brassicae (Cabbage Downy Mildew)
as §1
Cabbage plants (Eminence variety) in starter cups, sown on a 50/50 peat soil-pozzolana substrate and grown at 18-20° C., are treated at the cotyledon stage by spraying with the aqueous suspension described above.
as §2
After 24 hours, the plants are contaminated by spraying them with an aqueous suspension of Peronospora brassicae spores (50,000 spores per ml). The spores are collected from infected plant.
The contaminated cabbage plants are incubated for 5 days at 20° C., under a humid atmosphere.
Grading is carried out 5 days after the contamination, in comparison with the control plants.
Under these conditions, good (at least 50%) to total protection is observed at a dose of 330 ppm with the following compounds :B-6,B-7, J-46, J-59.

[1] = test system: Erysiphe graminis f. sp. tritici; test: In vivo test on Erysiphe graminis f. sp. tritici (wheat powdery mildew); conditions: dose 330 ppm; wheat plants sprayed 24 hours before contamination; grading 7 to 14 days after contamination vs control plants
Protocol: In Vivo Test on Erysiphe graminis f. sp. tritici (Wheat Powdery Mildew)
as §1
Wheat plants (Audace variety) in starter cups, sown on 50/50 peat soil-pozzolana substrate and grown at 12° C., are treated at the 1-leaf stage (10 cm tall) by spraying with the aqueous suspension described above.
as §2
After 24 hours, the plants are contaminated by dusting them with Erysiphe graminis f. sp. tritici spores, the dusting being carried out using diseased plants. Grading is carried out 7 to 14 days after the contamination, in comparison with the control plants.
Under these conditions, good (at least 50%) to total protection is observed at a dose of 330 ppm with the following compounds: A-4, B-4, B-8, C-2, C-3, C-12, D-4, F-1, H-1, H-2, H-4, H-20, I-3, J-1, J-2, J-3, J-19, J-20, J-31, J-37, J-40, J-55, J-57, J-58, J-59, J-61, K-1, M-5, M-6, R-1, R-10, R-26, R-29, V-7.

| SMILES | protection (good (at least 50%) to total) (Alternaria brassicae) | protection (good (at least 50%) to total) (Pyrenophora teres) | protection (good (at least 50%) to total) (Botrytis cinerea) | protection (good (at least 50%) to total) (Peronospora brassicae) | protection (good (at least 50%) to total) [1] |
| --- | --- | --- | --- | --- | --- |
| CCCCCSc1ncccc1C(=O)NCCc1ncc(C(F)(F)F)cc1Cl [Compound R-13] | at least 50% | – | – | – | – |
| CCON=Cc1cnc(CCNC(=O)c2sc(C)nc2C(F)(F)F)c(Cl)c1 [Compound H-7] | at least 50% | at least 50% | at least 50% | – | – |
| Cc1nn(C)cc1C(=O)NCCc1ncc(C(F)(F)F)cc1Cl [Compound J-59] | – | – | – | at least 50% | – |
| Cc1nc(C(F)(F)F)c(C(=O)N(CCc2ncc(C(F)(F)F)cc2Cl)C2CC2)s1 [Compound H-11] | – | at least 50% | – | – | – |
| Cc1nc(C(F)(F)F)c(C(=O)NCCc2nc(Cl)ccc2Cl)s1 [Compound H-5] | – | at least 50% | – | – | – |
| CCON=Cc1cnc(CCNC(=O)c2cn(C)nc2C(F)F)c(Cl)c1 [Compound J-37] | at least 50% | at least 50% | at least 50% | – | at least 50% |
| Cc1ccc(CCNC(=O)c2c(C)nn(C)c2F)nc1 [Compound J-47] | at least 50% | – | – | – | – |
| CON=Cc1cnc(CCNC(=O)C2=C(C)OCCS2)c(Cl)c1 [Compound V-8] | at least 50% | at least 50% | at least 50% | – | – |
| Cn1cc(C(=O)NCCc2ncc(Br)cc2Cl)c(C(F)F)n1 [Compound J-43] | at least 50% | at least 50% | at least 50% | – | – |
| Cc1nc(C(F)(F)F)c(C(=O)NCCc2ncc(C(F)(F)F)cc2Cl)s1 [Compound H-1] | at least 50% | at least 50% | at least 50% | – | at least 50% |
| Cn1cc(C(=O)N(CCc2ncc(C(F)(F)F)cc2Cl)C2CC2)c(C(F)F)n1 [Compound J-41] | at least 50% | at least 50% | – | – | – |
| Cc1nc(C(F)F)c(C(=O)NCCc2ccc(C(F)(F)F)c(Cl)n2)s1 [Compound H-23] | at least 50% | at least 50% | – | – | – |
| CON=C(C)c1cnc(CCNC(=O)c2cn(C)nc2C(F)F)c(Cl)c1 [Compound J-31] | at least 50% | at least 50% | at least 50% | – | at least 50% |
| CON=Cc1cnc(CCNC(=O)c2cn(C)nc2C(F)F)c(Cl)c1 [Compound J-35] | at least 50% | at least 50% | at least 50% | – | – |
| Cc1oc(-c2ccc(Cl)cc2)cc1C(=O)NCCc1ncc(C(F)(F)F)cc1Cl [Compound B-6] | – | – | – | at least 50% | – |
| Cc1nc(C(F)F)c(C(=O)NCCc2nc(C)c(Cl)cc2Cl)s1 [Compound H-19] | at least 50% | at least 50% | – | – | – |

| SMILES | protection (good (at least 50%) to total) (Alternaria brassicae) | protection (good (at least 50%) to total) (Pyrenophora teres) | protection (good (at least 50%) to total) (Botrytis cinerea) | protection (good (at least 50%) to total) (Peronospora brassicae) | protection (good (at least 50%) to total) [1] |
| --- | --- | --- | --- | --- | --- |
| O=C(C1=C(C(F)(F)F)OCCS1)N(CCc1ncc(C(F)(F)F)cc1Cl)C1CC1 [Compound V-13] | – | at least 50% | – | – | – |
| Cc1nn(C)c(F)c1C(=O)NCCc1ncc(Cl)cc1Cl [Compound J-46] | – | at least 50% | – | at least 50% | – |
| CC1=C(C(=O)NCCc2ncc(C(F)(F)F)cc2Cl)SCCO1 [Compound V-1] | at least 50% | at least 50% | at least 50% | – | – |
| Cc1nc(C(F)F)c(C(=O)NCCc2nc(F)c(Cl)cc2F)s1 [Compound H-22] | at least 50% | at least 50% | at least 50% | – | – |
| Cc1nc(C(F)(F)F)c(C(=O)NCCc2nc(Cl)c(Cl)cc2Cl)s1 [Compound H-9] | – | – | at least 50% | – | – |
| CC1=C(C(=O)NCCc2ncc(Cl)cc2Cl)SCCO1 [Compound V-6] | at least 50% | – | – | – | – |
| Cc1c(F)c(F)nc(CCNC(=O)c2cn(C)cc2C(F)(F)F)c1F [Compound E-4] | at least 50% | at least 50% | at least 50% | – | – |
| Cc1nc(C(F)F)c(C(=O)NCCc2nc(F)c(Cl)cc2Cl)s1 [Compound H-20] | – | at least 50% | – | – | at least 50% |
| Cc1nc(C(F)F)c(C(=O)N(CCc2ncc(C(F)(F)F)cc2Cl)C2CC2)s1 [Compound H-15] | – | at least 50% | – | – | – |
| Cc1nc(C(F)F)c(C(=O)NCCc2ncc(C(F)(F)F)cc2Cl)s1 [Compound H-2] | at least 50% | at least 50% | at least 50% | – | at least 50% |
| Cn1cc(C(=O)NCCc2nc(F)c(F)cc2F)c(C(F)(F)F)c1 [Compound E-3] | at least 50% | at least 50% | – | – | – |
| Cc1cc(C(=O)NCCc2ncc(C(F)(F)F)cc2Cl)c(C)o1 [Compound B-7] | – | – | – | at least 50% | – |
| CC1=C(C(=O)N(CCc2ncc(C(F)(F)F)cc2Cl)C2CC2)SCCO1 [Compound V-12] | at least 50% | at least 50% | – | – | – |
| Cc1ccc(CCNC(=O)C2=C(C(F)(F)F)OCCS2)nc1 [Compound V-11] | – | at least 50% | – | – | – |
| CON=Cc1cnc(CCNC(=O)c2cccnc2Cl)c(Cl)c1 [Compound R-30] | at least 50% | at least 50% | – | – | – |
| O=C(NCCc1ncc(C(F)(F)F)cc1Cl)c1ccc(N2CCOCC2)nc1 [Compound R-9] | – | at least 50% | – | – | – |
